The source of these data is article PMC6775092.

Amino acid sequences for entries named in this document (tags omitted). A change or cut given only in a name is not applied to a line headed by its entry. Chains listed by the source or under a name are the forms on record and can include a tag or linker.
MAP1LC3C (microtubule associated proteins 1 light chain 3 C), cytosolic LC3C protein of 126 amino acids (Q9BXW4, form named): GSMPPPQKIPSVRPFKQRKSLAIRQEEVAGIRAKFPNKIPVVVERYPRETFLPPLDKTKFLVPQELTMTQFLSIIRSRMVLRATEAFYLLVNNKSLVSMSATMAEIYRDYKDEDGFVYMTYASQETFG

These are yes or no findings as the source states them, for the method shown.

The target in this experiment is MAP1LC3C (microtubule associated proteins 1 light chain 3 C), cytosolic LC3C protein of 126 amino acids (human) (UniProt Q9BXW4). As to the kind of experiment: NMR 15N relaxation (overall rotational autocorrelation time); 510 uM [U-15N] LC3C in 20 mM PIPES, 150 mM NaCl, 0.1 mM EDTA, 2% (v/v) glycerol-d8, 10% D2O, pH 6.0; 800 MHz, 20.0 °C; both purified.

Turning to “MAP1LC3C (microtubule associated proteins 1 light chain 3 C), cytosolic LC3C protein of 126 amino acids (from UniProt Q9BXW4 1-126)”, the binding entry is given as “no binding (tested: 510 uM)”.
